Measurements reported in publication PMC9995517.
Results are given in words; binding and its absence hold for the method and conditions named. Tags and fused reporters may be left off the sequences shown.

Target: T1, tyrosyl-tRNA synthetase, wild type, recombinant Xpress-6xHis tagged (His-YARS1^WT) (human) (UniProt P54577)
T1 sequence: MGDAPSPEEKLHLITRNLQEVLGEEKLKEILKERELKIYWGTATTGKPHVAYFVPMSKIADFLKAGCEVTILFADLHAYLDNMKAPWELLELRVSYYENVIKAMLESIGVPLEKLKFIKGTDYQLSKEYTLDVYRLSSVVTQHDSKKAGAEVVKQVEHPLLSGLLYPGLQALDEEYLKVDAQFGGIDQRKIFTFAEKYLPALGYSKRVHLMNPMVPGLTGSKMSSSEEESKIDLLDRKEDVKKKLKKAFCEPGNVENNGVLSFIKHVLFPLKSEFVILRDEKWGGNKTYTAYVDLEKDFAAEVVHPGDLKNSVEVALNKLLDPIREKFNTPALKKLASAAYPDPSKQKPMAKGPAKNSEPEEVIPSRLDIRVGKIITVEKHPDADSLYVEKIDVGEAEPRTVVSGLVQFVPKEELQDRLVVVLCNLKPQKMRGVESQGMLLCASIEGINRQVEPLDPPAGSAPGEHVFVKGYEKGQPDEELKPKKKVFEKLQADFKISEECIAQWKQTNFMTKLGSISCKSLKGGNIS
Assay: pull-down; recombinant His-YARS1 preincubated individually with GST-PLS3 or α-actinin and magnetic Dynabeads, 20 min at room temperature; 50 mM NaP pH 8.0, 300 mM NaCl, 0.01% Tween-20; four washes; imidazole elution; SDS-PAGE, Coomassie; both purified

## α-actinin (Cytoskeleton)
  binding: no binding
